According to PubChem BioAssay AID2685 (National Center for Advancing Translational Sciences (NCATS), 2010):
Some of the results follow. Shown are side measurements of this screen, not its main read-out; they come without a call. Most of these compounds were active or inconclusive in the main read-out, so they are no random draw. The note in brackets gives the kind of curve behind each potency; many fits are weak.

Experiment: qHTS Assay for Lipid Storage Modulators in Drosophila S3 Cells;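 for cell number change: cells counted by Cell Tracker Red CMTPX staining in the red channel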
Details: BODIPY lipid droplet fluorescence, 18-24 h; for cell number change: measured here: cell count max response, cells fed with added oleic acid
How it was run: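 Drosophila S3 cells got compounds at several concentrations plus oleic acid (400 uM solution). Laser-scanning cytometry with 488 nm excitation read lipid droplets at 500-530 nm and cells at 575-640 nm. Percent activity was relative to 20 uM Triacsin C.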

[1] = measured here: lipid fluorescence (Fed channel) AC50, cells fed with added oleic acid
[2] = measured here: cell number channel AC50, cells fed with added oleic acid

SMILES | cell number change | AC50 [1] | AC50 [2]
Cc1sc(NC(=O)CN2CCN(c3ccccn3)CC2)c(C#N)c1C | -2.89% | 5.17 µM [rising, single point] | –
CC1CCN(C(=O)CCN2C(=O)/C(=C/c3cccs3)SC2=S)CC1 | -2.86% | 29.1 µM [falling, single point] | –
CCC(C)(C)C1CCC2(CC1)NC(=O)N(CC(=O)NC(C)CCc1ccccc1)C2=O (stereo not drawn) | 12.9% | – | –
CCC1(CC)Cc2ccccc2-c2nc(-c3ccccc3)oc(=O)c21 | 21.5% | – | –
CC12CCC(=O)N1C(C(=O)Nc1ccccc1F)CS2 (stereo not drawn) | -27.8% | – | 0.184 µM [falling, full curve, poor fit]
CC1CN(c2nc(Nc3ccccc3)nc(N)c2[N+](=O)[O-])CC(C)O1 (stereo not drawn) | -25.6% | 23.1 µM [falling, single point] | –
CCN(CC)CCn1c(NC(=O)c2ccccc2O)nc2ccccc21 | -25.2% | 2.91 µM [falling, partial curve] | –
Nc1ccc(-c2ncc(-c3ccccc3)o2)cc1 | -5.56% | – | –
CCc1sc(C(=O)Nc2ccsc2C(=O)OC)cc1Br | -31.6% | – | 0.0651 µM [falling, full curve]
CCC(C)NC(=O)CSc1nc2c(sc3ccccc32)c(=O)n1CCCN1CCOCC1 (stereo not drawn) | – | – | 2.91 µM [rising, single point]
C=CCc1c(C)nc(-c2ccccc2)nc1Nc1ccc(O)cc1 | -37.8% | 11.6 µM [falling, partial curve, poor fit] | 29.1 µM [falling, single point]
NNc1nc2c(F)cc(F)cc2s1 | -36.3% | 5.8 µM [falling, full curve] | 16.4 µM [falling, single point]
CCCCn1c(N)c(N(CC)C(=O)c2ccc(Cl)c([N+](=O)[O-])c2)c(=O)[nH]c1=O | 4.2% | – | –
COCCN(CC(=O)Nc1ccccc1)S(=O)(=O)c1ccc(S(=O)(=O)N2CCCC2)cc1 | 9.25% | 0.326 µM [falling, partial curve, poor fit] | –
CCOC(=O)C1=C(C)NC(=O)NC1c1ccc(OCCO)c(OC)c1 (stereo not drawn) | – | 6.51 µM [falling, single point] | 0.731 µM [falling, single point]
Cn1c(SCc2ccccc2Cl)nc2ccccc21 | – | 29.1 µM [rising, single point] | 5.8 µM [rising, single point]
Cc1ccccc1NS(=O)(=O)c1nnc(NC(=O)c2ccc(Br)cc2)s1 | 4.13% | 6.51 µM [falling, partial curve, poor fit] | –
CCC1CCCCN1C(=O)c1cc2cc(Br)ccc2oc1=O (stereo not drawn) | 11.1% | 0.731 µM [falling, full curve, poor fit] | –
COc1ccc(NC(=O)Cc2nnc(SCC(=O)NC3=NCCS3)n2C)cc1 | 22.2% | – | –
Cc1ccc([N+](=O)[O-])c(OCCCNCC(C)O)c1 (stereo not drawn) | – | 17.8 µM [rising, single point] | –

Single entries from the entries so far:
AC50 [2] with CCOC(=O)C1=C(C)NC(=O)NC1c1ccc(OCCO)c(OC)c1 (stereo not drawn) reads 0.731 µM [falling, single point]
cell number change with CC1CCN(C(=O)CCN2C(=O)/C(=C/c3cccs3)SC2=S)CC1 reads -2.86%
AC50 [1] with CCN(CC)CCn1c(NC(=O)c2ccccc2O)nc2ccccc21 reads 2.91 µM [falling, partial curve]
AC50 [2] with Cn1c(SCc2ccccc2Cl)nc2ccccc21 reads 5.8 µM [rising, single point]
AC50 [2] with NNc1nc2c(F)cc(F)cc2s1 reads 16.4 µM [falling, single point]

The results go on:

SMILES | cell number change | AC50 [1] | AC50 [2]
Cc1ccc(C(=O)NC(=S)N2CC(C)OC(C)C2)cc1[N+](=O)[O-] (stereo not drawn) | -34.4% | – | 32.6 µM [falling, single point]
O=C(NNC(=O)C1CCN(S(=O)(=O)c2ccc(Cl)cc2)CC1)c1ccc(S(=O)(=O)N2CCCCC2)cc1 | -5.46% | 8.2 µM [rising, partial curve] | 6.51 µM [rising, single point]
CCCCc1c(C)nc2ccc(C)cc2c1SCCC(=O)O | 1.47% | – | –
COc1ccc(/C(C)=N/Nc2ccc(C(=O)O)cc2)cc1OC | -2.3% | 2.31 µM [rising, full curve, poor fit] | 0.731 µM [rising, single point]
O=C1CN(C(=O)COC(=O)c2cccc(S(=O)(=O)NCc3ccccc3)c2)c2ccccc2N1 | -32% | 7.31 µM [falling, partial curve] | 25.9 µM [falling, single point]
Cn1c(=O)c2c(nc(-n3ccnc3)n2Cc2ccc([N+](=O)[O-])cc2)n(C)c1=O | – | 0.0411 µM [rising, full curve, poor fit] | 0.184 µM [rising, single point]
CCN1CCN(c2ccc(S(=O)(=O)N3CCCCC3)cc2NC(=O)c2sccc2C)CC1 | -24.3% | 18.4 µM [falling, single point] | –
CCOc1ccc(S(=O)(=O)N(C)c2ccc(OCC(=O)NCC3CCCO3)cc2)cc1 (stereo not drawn) | -19.5% | 0.259 µM [falling, full curve, poor fit] | –
Fc1ccc(-c2nnc(N3CCOCC3)c3ccccc23)cc1F | – | 0.517 µM [rising, full curve] | –
N#Cc1c(N)nc2c(c1-c1ccccc1)CCCC2 | 37.5% | – | 7.31 µM [rising, single point]
Cc1c(C(=O)N(Cc2ccncc2)CC2CCCO2)oc2c(F)cccc12 (stereo not drawn) | -34% | 18.4 µM [falling, partial curve, poor fit] | 29.1 µM [falling, single point]
Cc1cccc(NC2=C/C(=N/S(=O)(=O)c3cccs3)c3ccccc3C2=O)c1 | 16.8% | 5.8 µM [rising, partial curve] | –
Cc1ccccc1C(=O)N1CCN(c2ncccn2)CC1 | 4.5% | 0.00461 µM [rising, full curve, poor fit] | –
O=C(c1cc(F)c(F)cc1Cl)N1CCOCC1 | 33.6% | – | 5.17 µM [rising, full curve, poor fit]
CCCCC(=O)Nc1ccc(NC(=O)c2ccc(C)c([N+](=O)[O-])c2)cc1OC | 2.08% | 18.4 µM [rising, single point] | –
Cc1cc(Cl)ccc1OCCCC(N)=O | 0.146% | – | –
CCOC(=O)c1cnn(-c2nc(CC)nc3sc4c(c23)CCC4)c1N | 14.1% | 0.517 µM [rising, full curve] | –
Cc1ccc(NC(=O)C(=O)Nc2ccccn2)cc1 | 3.33% | – | –
Cn1c(CNC(=O)Nc2cccc(Cl)c2)nnc1SCc1ccccc1 | -15.6% | – | 0.164 µM [falling, full curve, poor fit]
NC(=O)CC(NC(=O)Cc1ccc(Cl)cc1)c1ccc(NCCN2CCOCC2)c([N+](=O)[O-])c1 (stereo not drawn) | -11.4% | 9.2 µM [rising, partial curve] | –

SMILES | cell number change | AC50 [1] | AC50 [2]
O=C1OC(c2ccc3c(c2)OCO3)=N/C1=C\c1ccc(C(=O)O)cc1 | 3.26% | 0.00517 µM [falling, full curve, poor fit] | –
COc1ccccc1OCc1cc(C(=O)NCc2ccc(N3CCCC3=O)cc2)no1 | 12.2% | – | 0.13 µM [rising, full curve, poor fit]
Cc1nonc1OCCN1CCN(c2ccccc2[N+](=O)[O-])CC1 | 19.1% | 0.58 µM [falling, single point] | 0.58 µM [falling, single point]
CC(C)CNC(=S)N1CCC(c2nc(-c3ccc(F)cc3)no2)CC1 | – | 6.51 µM [rising, single point] | 1.46 µM [falling, partial curve]
N#Cc1c(/N=C/N2CCCC2)oc(-c2ccccc2)c1-c1ccccc1 | – | 4.11 µM [rising, single point] | –
O=C(C1CC(=O)N(c2ccccc2)C1)N1CCN(c2ccccc2F)CC1 (stereo not drawn) | 3.76% | 6.51 µM [rising, single point] | –
O=C(CSc1ccccn1)Nc1ccc(F)c([N+](=O)[O-])c1 | 41.3% | – | –
CN(C)CCNc1nc2sc3c(c2c(=O)n1Cc1ccccc1)CCCCC3 | 27.8% | 0.58 µM [falling, single point] | 0.146 µM [rising, full curve, poor fit]
CCCn1nc(NC(=O)c2ccncc2)c2cc3ccccc3nc21 | -10.5% | 0.651 µM [rising, full curve, poor fit] | –
CC(Cl)C(=O)Nc1ccccc1C#N (stereo not drawn) | -23.8% | – | –
CCOc1ccccc1-n1c(SCC(=O)N(C(C)C)C(C)C)nnc1-c1cccnc1 | 44.2% | – | 10.3 µM [rising, partial curve, poor fit]
COc1ccc(S(=O)(=O)N2CCCCC2)cc1NS(=O)(=O)c1ccccc1F | -44.8% | – | –
CCCCOCCCNC(=O)c1c(-c2ccccc2)noc1C | 30.5% | – | 2.91 µM [rising, partial curve]
CCc1ccc(S(=O)(=O)Nc2ccc(-c3ccc4nnc(C)n4n3)cc2)s1 | -9.44% | 32.6 µM [falling, single point] | –
COc1ccc(OC)c(C2CC(c3ccccc3)=NN2C(=S)Nc2ccccc2)c1 (stereo not drawn) | 22.8% | 0.146 µM [rising, full curve, poor fit] | –
CC(=O)N(CN1C(=O)c2ccc([N+](=O)[O-])cc2C1=O)c1cccc(C(=O)O)c1 | 17.8% | 6.51 µM [falling, single point] | 3.66 µM [falling, partial curve]
O=C(Oc1cccc(NC2=NS(=O)(=O)c3ccccc32)c1)c1ccncc1 | -28.2% | – | –
Cc1ccc(-n2c(=O)c3c4c(sc3n(Cc3cc(=O)n5ccccc5n3)c2=O)CCC4)cc1C | -6.48% | 2.59 µM [rising, partial curve] | 0.092 µM [rising, full curve, poor fit]
CC(C)OCCCNC(=O)c1ccc(C2SCC(=O)N2Cc2ccco2)cc1 (stereo not drawn) | 31.9% | – | 0.0731 µM [rising, full curve, poor fit]
Cc1nc(Oc2ccc(S(=O)(=O)N3CCOCC3)cc2Cl)c2c3c(sc2n1)CCCC3 | 17.1% | – | –
